Primary screen of a compound library

Data taken from ChEMBL document CHEMBL3988442, “University of Dundee, Small-Polar-MMV Screening Library” (2021).

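Whole-parasite assay of Trypanosoma brucei over 72 hours; the read-out is not stated. Concentration: 30 µM. Direction is inferred from retests: higher values go with stronger inhibition. Values scatter widely below zero; nearly all retest evidence comes from the higher of the two concentrations used. Size under these conditions: about 64,000 compounds, about 940 of them at 50% or above in at least one test.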

Values are the deposited “Percent Effect”, in %. The record does not define 0% and 100%; most values in the screen are far below 50% and negative numbers occur (in some assays of this library far below -100). The compounds are a random part of those screened.

| compound | effect |
|---|---|
| `c1cnnc(N2CCCC(NCc3nnc(-c4ccco4)o3)C2)c1` (centres undefined) | -5.484 |
| `CC(C)N1C[C@@H](CO)[C@H](c2ccccc2)S1(=O)=O` | -2.5 |
| `COc1cc(C(=O)N2CCC(c3n[nH]c(C)n3)CC2)cc(OC)c1C` | -8.883 |
| `Cc1nn(CC(=O)N2CCC3(CN(C)C(=O)O3)C2)c(=O)c2ccccc12` (centres undefined) | -41.41 |
| `CCCOCCn1ncc(N2CCCC2)cc1=O` | -8.181 |
| `Cc1nnc(CN2CCC(c3nc4cc(Cl)ccc4o3)CC2)n1C` | -1.449 |
| `Cc1nc(CCNC(=O)NC2CCCN(c3ncccn3)C2)cs1` (centres undefined) | -6.08 |
| `COCCNC(=O)Cc1cnc(-n2cccc2)s1` | -32.39 |
| `CC(C)C(NC(=O)Nc1cnn(CC(N)=O)c1)c1ccc(Cl)cc1` (centres undefined) | -3.03 |
| `CCS(=O)(=O)Nc1cnn(Cc2cccc(F)c2)c1` | -14.93 |
| `CC(C)S(=O)(=O)Cc1cccc(NC(=O)c2ccc[nH]2)c1` | -104 |
| `COCc1nc(C2CCN(Cc3ncc[nH]3)CC2)no1` | -24.33 |
| `CC(C)Oc1cccc(C(=O)C2CCCN(C(=O)c3ccoc3)C2)c1` (centres undefined) | -52.77 |
| `COc1ccc(CN2C[C@@H](F)[C@@H](OCc3nc4cnccc4[nH]3)C2)cn1` | -9.212 |
| `CC(C(=O)N1CCN(Cc2ccc(C#N)cc2)CC1)n1ccnc1` (centres undefined) | -8.524 |
| `CCN1Cc2ccccc2CC2(CCN(C(=O)N(C)C)CC2)C1=O` | -46.84 |
| `OCCn1nccc1C1CCN(Cc2nc(C3CC3)no2)CC1` | -11.21 |
| `CCN(CC)S(=O)(=O)c1cc(Br)ccc1OC` | -28.69 |
| `CCc1nc(NCC2CCCN(C(=O)C3CC3)C2)c2cnn(C)c2n1` (centres undefined) | -11.25 |
| `CCC[C@H]1CN(CCOC)C[C@@H]1NC(=O)Cn1cc(C)cn1` | -5.951 |
| `CC(C)c1ccc(OCC(=O)N2CCOCC2c2ncon2)cc1` (centres undefined) | -22.9 |
| `O=C(c1cccc(C(F)(F)F)c1)N1CC(=O)N(C2CCC2)CC(O)C1` (centres undefined) | -26.93 |
| `COc1ccc(F)cc1NC(=O)NCC1(C)COC1` | -20.82 |
| `O=C(Cc1nc(-c2ccncc2)n[nH]1)N1CCOCC1` | -44.71 |
| `O=C1CCC2(CCOC2)CN1Cc1ccc2nsnc2c1` (centres undefined) | -17.3 |
| `COc1cccc(CN2CCOC(c3cnccn3)C2)c1F` (centres undefined) | -6.896 |
| `CC(=O)N1CCCC(Cc2cncc(Br)c2)CC1` (centres undefined) | -15.02 |
| `COC(=O)CS(=O)(=O)CCC(=O)N1CCCC1c1ccsc1` (centres undefined) | 25.9 |
| `CCCc1cc(C(=O)NCCn2nc3ccccn3c2=O)[nH]n1` | -1.519 |
| `Cn1c(C2CC2)nc2cc(NC(=O)C3(O)CCCC3)ccc21` | 9.32 |
| `Cc1cc(C)nc(N2CCC(Cn3cc(C(=O)N(C)C)cn3)CC2)n1` | -14.24 |
| `[H][C@@]12CCN(C(=O)CC(C)(C)C)[C@]1([H])C(=O)N(Cc1ccccc1)C(=O)N2` | -4.559 |
| `CCN(Cc1ccoc1)C(=O)c1cc(S(N)(=O)=O)c(C)o1` | -1.296 |
| `Cc1nn(C)c(C)c1-c1cc(-c2cnn(C)c2C2CC2)c(C#N)c(N)n1` | 20.75 |
| `Cn1c(=O)ccn(CC(=O)N2CCCC(n3cccn3)C2)c1=O` (centres undefined) | -6.608 |
| `Cc1ccc2c(c1)C1(CCN(C(N)=O)CC1)CN2CC1CC1` | -4.846 |
| `c1cncc(CCc2nc(C3CC3)nn2-c2ccc3c(c2)OCCO3)c1` | -39.61 |
| `CC(=O)N1CCC2(CC1)CN(C(=O)c1ccc3c(c1)OCO3)C2` | 0.7403 |
| `COc1ccc(-n2c(SC)nc(O)c(Cc3ccccc3)c2=O)cc1` | 5.571 |
| `O=C(c1ccccc1F)N1CC(c2nc(-c3ccc[nH]c3=O)no2)C1` | 5.364 |
| `Cc1ccc(CN2CC3(CCNCC3)CCC2=O)c(F)c1F` | -24.28 |
| `CCCc1nc(NCc2c(C)nn(CCC)c2C)c2cnn(C)c2n1` | 32.73 |
| `CCc1c(C(=O)N2CCC3(CC(=O)NC3=O)C2)csc1C` (centres undefined) | -51.48 |
| `COCc1ccc(C(=O)N2CC[C@H](O)[C@@H](n3ccnc3)CC2)cc1` | -6.683 |
| `Cc1cc(S(=O)(=O)N2CCCc3cc(Br)ccc32)sc1C(=O)O` | 12.2 |
| `CN(Cc1ccsc1)C(=O)c1cccc(NS(C)(=O)=O)c1` | 24.82 |
| `CC(C)CN1CCC2(C=C(C(=O)N(C)C)c3ccccc32)CC1.O=C(O)C(F)(F)F` | -83.33 |
| `Cc1nc(C)n(CC2CN(CCCOc3ccccc3C)CCO2)n1` (centres undefined) | -11.04 |
| `N#Cc1cc(Cn2cnc(C3CCC3)cc2=O)ccc1F` | -21.44 |
| `[H][C@]12CN(c3cnn(C)c3)C(=O)[C@@]1([H])CN(S(=O)(=O)C1CC1)C2` | -67.42 |
| `CC(=O)N1CC(C(=O)NC(C)c2cnn(C)c2C)C1` (centres undefined) | -23.56 |
| `CCn1nc(C)c(CN2CCCC(c3ccc(C(=O)O)cc3)C2)c1C` (centres undefined) | -13.55 |
| `Cc1nc(C)n(CC2CCCN(c3ncnc4[nH]ccc34)C2)n1` (centres undefined) | 50.76 |
| `Cc1nc[nH]c1CN1CCCC(CNC(=O)c2ccc(N)nc2)C1` (centres undefined) | -19.91 |
| `Cc1nc(NC(=O)COCC2CC2)ccc1Br` | -14.67 |
| `Cc1ncsc1C(=O)N(Cc1ccccn1)C1CC1` | -10.68 |

The last 4 entries again:

Result for Cc1nc(C)n(CC2CCCN(c3ncnc4[nH]ccc34)C2)n1 (centres undefined) was 50.76%.
Result for Cc1nc[nH]c1CN1CCCC(CNC(=O)c2ccc(N)nc2)C1 (centres undefined) was -19.91%.
Result for Cc1nc(NC(=O)COCC2CC2)ccc1Br was -14.67%.
Result for Cc1ncsc1C(=O)N(Cc1ccccn1)C1CC1 was -10.68%.